Assay results taken from publication PMC12533803, “Rotenoids from the Roots of Vicia faba L. (Fabaceae): Structural Characterization, Cytotoxic Effects, and Molecular Docking” (Chemistry & Biodiversity, 2025).

How the values were obtained:
[1] = test system: MCF‐7 (breast adenocarcinoma) cell line; assay: MTT cytotoxicity assay, MCF-7; format: cell-based; details: Homo sapiens, MCF7, 72 h incubation
Experimental: (§1) ATCC CCL 247), 501Mel (melanoma; RRID: CVCL_4633), and MCF‐7 (breast adenocarcinoma; ATCC HTB 22), along with non‐tumor cells line NIH/3T3 (mouse embryonic fibroblast; ATCC CRL 1658). […] Cells were kept at 37°C in a humidified atmosphere containing 5% CO2. […] At the end of the incubation period, the culture medium was replaced with a fresh medium containing MTT solution (0.5 mg/mL) and further incubated for 3 h. The MTT solution was then removed, and the formazan crystals formed were dissolved in 150 µL of DMSO. Absorbance for each well was measured at 570 nm, and then the values thereof were normalized in the percentage of viable cells based on that of the negative control.

[2] = test system: HCT‐116 (human colorectal carcinoma) cell line; assay: MTT cytotoxicity assay, HCT-116; format: cell-based; details: 72 h incubation
Experimental: as §1

SMILES: COc1cccc2c1C(=O)c1c(O)c3c(c(O)c1C2=O)C[C@@](O)(C(=O)CO)C[C@@H]3O[C@H]1C[C@H](N)[C@H](O)[C@H](C)O1 [Doxorubicin, reference compound]
- IC50 [1]: 30 nM
- IC50 [2]: 50 nM
